According to patent US7999089, “RNA aptamers and the uses thereof” (Industry-Academic Cooperation Foundation, Dankook University):
Results are given in words; binding and its absence hold for the method and conditions named. Binding seen in cells or lysates may run through a third protein. Some results given as binding are weak or reduced against the parent protein; the word gives no strength.

Protein sequences, listed by entry. Tags and fused reporters are not part of them. Residues count along the entry.
UniProt P35222, residues 2-781: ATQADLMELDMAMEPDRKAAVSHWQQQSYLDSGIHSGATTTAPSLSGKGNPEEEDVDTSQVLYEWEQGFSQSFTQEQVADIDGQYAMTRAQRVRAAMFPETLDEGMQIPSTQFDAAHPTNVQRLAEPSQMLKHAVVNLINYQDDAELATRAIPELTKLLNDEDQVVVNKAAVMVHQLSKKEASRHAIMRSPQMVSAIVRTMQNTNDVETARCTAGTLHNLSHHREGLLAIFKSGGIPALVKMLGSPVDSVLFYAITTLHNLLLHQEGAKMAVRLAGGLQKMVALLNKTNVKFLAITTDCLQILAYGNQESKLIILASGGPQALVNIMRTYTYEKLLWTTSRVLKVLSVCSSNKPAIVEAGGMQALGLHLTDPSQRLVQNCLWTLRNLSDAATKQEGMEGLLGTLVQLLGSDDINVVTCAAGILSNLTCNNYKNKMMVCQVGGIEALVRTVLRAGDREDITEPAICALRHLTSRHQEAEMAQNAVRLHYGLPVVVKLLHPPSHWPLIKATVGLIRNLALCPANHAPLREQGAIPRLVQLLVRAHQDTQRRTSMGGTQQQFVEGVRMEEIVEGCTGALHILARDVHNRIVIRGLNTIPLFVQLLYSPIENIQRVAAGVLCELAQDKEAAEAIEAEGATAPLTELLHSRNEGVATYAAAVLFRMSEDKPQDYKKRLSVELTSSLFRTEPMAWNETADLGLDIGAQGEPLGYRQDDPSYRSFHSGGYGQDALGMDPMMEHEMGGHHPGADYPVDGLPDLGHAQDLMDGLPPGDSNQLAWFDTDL
UniProt P12830, residues 155-882: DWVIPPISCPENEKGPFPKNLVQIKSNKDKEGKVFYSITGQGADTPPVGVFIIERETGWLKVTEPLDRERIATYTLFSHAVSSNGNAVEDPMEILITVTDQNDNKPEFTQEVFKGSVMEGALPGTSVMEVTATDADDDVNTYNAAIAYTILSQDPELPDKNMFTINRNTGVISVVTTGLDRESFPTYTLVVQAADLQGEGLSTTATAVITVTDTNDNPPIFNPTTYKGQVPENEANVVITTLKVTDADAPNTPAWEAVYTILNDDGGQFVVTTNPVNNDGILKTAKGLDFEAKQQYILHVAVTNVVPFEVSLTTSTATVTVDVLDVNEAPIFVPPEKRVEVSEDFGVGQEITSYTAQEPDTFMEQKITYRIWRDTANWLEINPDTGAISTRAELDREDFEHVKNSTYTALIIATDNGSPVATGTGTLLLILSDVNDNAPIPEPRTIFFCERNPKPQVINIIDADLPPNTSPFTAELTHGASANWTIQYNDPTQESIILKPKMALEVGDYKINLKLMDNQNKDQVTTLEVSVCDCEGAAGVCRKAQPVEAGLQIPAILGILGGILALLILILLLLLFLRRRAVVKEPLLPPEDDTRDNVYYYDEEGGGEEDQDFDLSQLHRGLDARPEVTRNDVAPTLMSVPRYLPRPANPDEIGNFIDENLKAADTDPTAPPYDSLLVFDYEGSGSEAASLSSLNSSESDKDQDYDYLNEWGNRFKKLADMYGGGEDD

Target: β-catenin (endogenous, HCT116 cells) (human) (UniProt P35222)
Assay: co-immunoprecipitation from HCT116 cells expressing U6 vector or U6-aptamer, anti-β-catenin antibody

Substance: E-cadherin (from UniProt P12830 155-882)
- binding: binds
